# Results are given in words; binding and its absence hold for the method and conditions named. Some binding calls cover weakened binding; strength is not graded here. For some assays here: Sequences can lack the tags named with a protein.
# B1: VHH B-siGFPst1 bioconjugate (protein)
# VHH: EVQLVESGGGVVQPGGSLRLSCAASGEIFSINFMRWYRQAPGKQREWVAGFTRDGSTNYPDSAKGRFTISRDNAKNTVYLQIDSLKPEDTAVYYCYMLDTWGQGTQVTVSSAAAEQKLISEEDLNGAAHHHHHHGS
# modifications: siGFPst1 siRNA linked to the Gln of the C-terminal Q-tag
# B2: VHH D (H3) (VHH)
# VHH: EVQLVESGGGEVQPGGSLKLSCVASGTDFSINFVRWYRQRPGKQREWVAGFTANGDTNYPDSMKGRFTISRDNAKNTVYLQINSLKSEDTAVYYCYMLDNWGQGTQVTVSS
# B3: C5-siSOD1m-5'VP (protein)
# VHH: EVQLVESGGGVVQPGGSLKLSCVASGTDFSINFIRWYRQAPGKQREFVAGFTATGNTNYADSMKGRFTISRDNTKNAVYLQIDSLKPEDTAVYYCYMLDKWGQGTQVTVSSAAAEQKLISEEDLNGAAHHHHHHGS
# modifications: siSOD1m-5'VP siRNA (SEQ ID NOs 465/466) linked by a stable linker to the tag
# B4: B8-MALAT1-ASO (protein)
# VHH: B1 VHH
# modifications: MALAT1 antisense oligonucleotide (SEQ ID NO 405) linked to the tag
# Legend:
# [1] = target: human transferrin receptor fused to EGFP, expressed on CHO cells (human) (UniProt P02786); test: flow cytometry, CHO-hTfR-EGFP cells (Figure 15A legend)
# [2] = target: human transferrin receptor fused to EGFP, expressed on CHO cells (human) (UniProt P02786); test: flow cytometry, CHO-hTfR-GFP cells, anti-6His
# [3] = target: human transferrin receptor fused to EGFP, expressed on CHO cells (human) (UniProt P02786); test: flow cytometry, CHO-hTfR-EGFP cells
# [4] = target: murine TfR expressed by murine neuroblastoma Neuro-2a cells (mouse) (UniProt Q62351); test: competition with C5-Alexa680 on living Neuro-2a cells, flow cytometry
binder,measurement,setting,value
B1,binding,[1],binds
same,binding,[2],binds
B2,binding,[3],binds
B3,binding,[4],binds
B4,binding,[4],binds

# Reference: patent publication EP4480965A1, “TRANSFERRIN RECEPTOR-BINDING MOLECULES, CONJUGATES THEREOF AND THEIR USES TO PREVENT OR TREAT CNS DISEASES” (Vect-Horus, priority 2023, dated 2024)
